# Experimental data from patent US10870633B2, “Types of C-3 substituted kynurenic acid derivatives with improved neuroprotective activity” (SZEGEDI TUDOMÁNYEGYETEM, priority 2016, dated 2020).
# At least one structure is not confirmed: it was looked up by name or label, or the drawing left a doubt.
# Test system: cortical spreading depolarization (CSD)
# Experiment: In vivo combined cortical spreading depolarization (CSD) model induced by nitroglycerine (NTG)+KCl
# Parameters: species or system Wistar rats
# Conditions: rat
smiles,measurement,value
"CNS(=O)(=O)Cc1ccc2[nH]cc(CCN(C)C)c2c1 [NTG + SUMA, sumatriptane]",Propagation ratio of the CSD waves,1.028 +− 0.1424
